PubChem BioAssay AID1159578 | Peter MacCallum Cancer Centre | 2015

- Screen: 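siRNA pools altering how lymphatic endothelial cells close a scratch wound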 (primary screen)
- System: human lymphatic endothelial cells
- Reagents: siRNA pool against human genes, 40 nM
- Timing: 48 h after transfection
- Measurement: 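High-content imaging of dye-stained cells in a scratch assay measures filled wound area and nuclei per well; duplicate means given as ratio to mock and robust z-score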
- Reading the numbers: migration robust z-score: higher = faster migration into the scratch; migration relative to mock: higher = more scratch area covered than mock; nuclei per well: higher = more cells in the well
- Call rule: 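Pools averaging fewer than 3300 nuclei are never called; remaining pools count as changed when migration robust z lies outside -2 to 2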
- Meaning of the calls: active = migration changed; inactive = no migration change, or too few cells
Here is a random part of about 18,000 reagents tested. In the full data, about 1,030 (5.7%) are marked active. 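Inactive calls also include pools with fewer than 3300 nuclei, whose migration was not assessed.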 Raw values are not corrected between plates.

target gene,migration robust z-score,migration class with cell-count check,migration relative to mock,"nuclei per well, duplicate mean",activity call
MSTO1,0.03,migration z between -2 and 2; enough cells,0.9,5756,inactive
FSCN1,-0.98,migration z between -2 and 2; enough cells,0.63,5098,inactive
DDC,0.78,migration z between -2 and 2; enough cells,0.96,5768,inactive
ASF1B,-0.96,migration z between -2 and 2; enough cells,0.64,7764,inactive
ANKRD1,-0.16,migration z between -2 and 2; enough cells,0.84,5822,inactive
HEPACAM2,0.15,migration z between -2 and 2; enough cells,0.92,6692,inactive
GOLGA8EP,-1.27,migration z between -2 and 2; enough cells,0.55,6888,inactive
TEX19,-0.55,migration z between -2 and 2; enough cells,0.74,4348,inactive
ZNF57,0.86,migration z between -2 and 2; enough cells,1.11,7579,inactive
FKBP4,-0.16,migration z between -2 and 2; enough cells,0.78,4626,inactive
C22orf42,0.11,migration z between -2 and 2; enough cells,0.92,3722,inactive
PLA2G1B,-1.27,migration z between -2 and 2; enough cells,0.56,4295,inactive
MRI1,-1.19,migration z between -2 and 2; enough cells,0.57,3404,inactive
OPN1SW,-0.64,migration z between -2 and 2; enough cells,0.68,4426,inactive
RBL2,-1.43,migration z between -2 and 2; enough cells,0.53,4702,inactive
NDFIP2,-0.51,migration z between -2 and 2; enough cells,0.75,5812,inactive
SPP2,-0.15,migration z between -2 and 2; enough cells,0.84,5144,inactive
AP3B2,-1.25,migration z between -2 and 2; enough cells,0.56,5890,inactive
PCDHB14,1.07,migration z between -2 and 2; enough cells,1.17,6772,inactive
RTKN2,1.42,migration z between -2 and 2; enough cells,1.25,5294,inactive
OTUB2,-1.86,migration z between -2 and 2; enough cells,0.4,3474,inactive
ALOX5AP,-0.96,migration z between -2 and 2; enough cells,0.62,7189,inactive
SIRT7,-0.13,migration z between -2 and 2; enough cells,0.78,5880,inactive

2 of these entries, set out differently:
{"target gene": "ANKRD1", "migration robust z-score": -0.16, "migration class with cell-count check": "migration z between -2 and 2; enough cells", "migration relative to mock": 0.84, "nuclei per well, duplicate mean": 5822, "activity call": "inactive"}
{"target gene": "HEPACAM2", "migration robust z-score": 0.15, "migration class with cell-count check": "migration z between -2 and 2; enough cells", "migration relative to mock": 0.92, "nuclei per well, duplicate mean": 6692, "activity call": "inactive"}
